Drawing on patent publication US7345049B2, “Phenylalanine derivatives” (Ajinomoto Co., Inc., priority 2003, dated 2008), this text covers IC50 for one compound.

Amino acid sequences for entries named in this document (tags omitted). Residues count along the entry.
UniProt P05556, 21-798 limits assumed: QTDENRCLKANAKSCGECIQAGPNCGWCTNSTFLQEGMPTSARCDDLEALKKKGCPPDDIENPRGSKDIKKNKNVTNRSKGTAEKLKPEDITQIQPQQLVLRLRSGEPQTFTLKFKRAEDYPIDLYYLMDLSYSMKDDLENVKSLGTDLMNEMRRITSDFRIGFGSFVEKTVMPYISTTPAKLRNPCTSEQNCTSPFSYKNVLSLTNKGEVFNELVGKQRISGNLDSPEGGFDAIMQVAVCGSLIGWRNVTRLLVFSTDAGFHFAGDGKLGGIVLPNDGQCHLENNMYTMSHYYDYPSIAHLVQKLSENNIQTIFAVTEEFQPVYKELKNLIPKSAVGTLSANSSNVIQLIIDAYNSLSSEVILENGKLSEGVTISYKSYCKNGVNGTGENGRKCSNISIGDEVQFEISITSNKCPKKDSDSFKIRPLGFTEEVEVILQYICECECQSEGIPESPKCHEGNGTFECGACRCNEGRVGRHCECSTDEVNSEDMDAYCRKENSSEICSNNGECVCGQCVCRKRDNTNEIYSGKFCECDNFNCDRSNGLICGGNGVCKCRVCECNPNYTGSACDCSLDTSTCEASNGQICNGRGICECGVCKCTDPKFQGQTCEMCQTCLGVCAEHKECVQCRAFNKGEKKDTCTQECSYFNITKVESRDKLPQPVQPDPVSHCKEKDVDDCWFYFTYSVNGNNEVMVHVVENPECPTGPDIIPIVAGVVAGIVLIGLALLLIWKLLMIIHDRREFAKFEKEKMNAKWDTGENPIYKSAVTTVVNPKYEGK
UniProt P13612, 34-1032 limits assumed: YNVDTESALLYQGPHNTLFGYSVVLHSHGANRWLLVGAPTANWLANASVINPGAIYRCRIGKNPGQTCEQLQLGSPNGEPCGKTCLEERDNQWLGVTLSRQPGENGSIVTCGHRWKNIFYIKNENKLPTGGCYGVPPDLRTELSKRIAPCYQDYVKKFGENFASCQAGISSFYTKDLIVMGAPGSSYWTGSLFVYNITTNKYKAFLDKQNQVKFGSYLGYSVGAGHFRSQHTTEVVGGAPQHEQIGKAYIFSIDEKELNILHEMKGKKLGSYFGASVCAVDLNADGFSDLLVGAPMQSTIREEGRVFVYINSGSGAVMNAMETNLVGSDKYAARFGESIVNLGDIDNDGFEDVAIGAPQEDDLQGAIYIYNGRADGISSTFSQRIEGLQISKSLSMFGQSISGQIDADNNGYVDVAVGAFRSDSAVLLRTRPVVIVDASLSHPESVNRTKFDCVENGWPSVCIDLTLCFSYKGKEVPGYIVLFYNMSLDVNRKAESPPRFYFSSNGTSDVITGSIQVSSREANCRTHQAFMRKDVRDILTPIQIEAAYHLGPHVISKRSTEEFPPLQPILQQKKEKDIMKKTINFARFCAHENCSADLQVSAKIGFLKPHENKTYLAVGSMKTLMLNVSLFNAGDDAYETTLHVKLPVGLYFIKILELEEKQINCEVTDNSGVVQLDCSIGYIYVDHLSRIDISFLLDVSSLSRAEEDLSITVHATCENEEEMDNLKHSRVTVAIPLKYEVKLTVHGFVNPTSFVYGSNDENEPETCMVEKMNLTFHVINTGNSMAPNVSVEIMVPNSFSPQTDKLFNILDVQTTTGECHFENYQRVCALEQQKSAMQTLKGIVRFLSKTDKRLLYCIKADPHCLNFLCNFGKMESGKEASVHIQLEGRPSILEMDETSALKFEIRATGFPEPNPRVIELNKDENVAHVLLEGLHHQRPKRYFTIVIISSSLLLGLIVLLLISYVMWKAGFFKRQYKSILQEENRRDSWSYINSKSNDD

Each structure is given as a SMILES string. The structures given here were assigned with low confidence; some may be wrong.

The target in the assay is VCAM-1/α4β1 integrin binding (Homo sapiens, UniProt P05556+P13612). The assay can be described thus: Assay of antagonistic activity to VCAM-1/α4β1 integrin binding under the existence of blood serum (Jurkat cell adhesion to VCAM-1/Fc). The conditions noted are these: read-out: IC50, antagonistic activity to VCAM-1/α4β1 integrin binding; Jurkat cells, recombinant human VCAM-1/Fc, 50% human blood serum; tested form: TFA. The procedure:
Assay of Antagonistic Activity to VCAM-1/α4β1 Integrin Binding Under the Existence of Blood Serum
The capacity of a test substance antagonistic to the binding of cell strain of human T cells, Jurkat (ATCC TIB-152), known to express integrin α4β1, to VCAM-1 was determined.
Fifty μl/well of a solution (500 ng/ml) of recombinant human VCAM-1/Fc (R & D systems) diluted with buffer A (0.1 M NaHCO3, pH 9.6) was added to a 96-well microtiter plate (Nunc Maxisorp). After the incubation at 4° C. overnight and washing once with PBS, a buffer (buffer B) obtained by diluting Block Ace (Snow Brand Milk Products Co., Ltd.) with PBS to ½ concentration was added in an amount of 150 μl/well. After the incubation at room temperature for 2 hours, buffer B was removed and the plate was washed with PBS once.
Jurkat cells were washed with Dulbecco modified Eagle medium (SIGMA, hereinafter referred to as “DMEM”) once. […]
Sixty μl of a test substance of various concentrations obtained by the dilution with the binding buffer was added to a round-bottom, 96-well plate (IWAKI). […] Its absorbance of 490 nm was determined with a plate reader (Molecular Devices, Vmax). The absorbance thus obtained detects an activity of lactate dehydrogenase (LDH) dissolved in the supernatant of each well. Namely, the absorbance is proportional to the number of remaining Jurkat cells on the plate via the binding to VCAM-1. […]

Take `CC(C)CNCc1ccc2c(c1)c(=O)n(-c1ccc(C[C@H](NC(=O)c3c(Cl)cccc3Cl)C(=O)O)cc1)c(=O)n2C`: the IC50 came out at 6.4 nM.
